Measurements reported in PubChem BioAssay AID504804 (Drosophila RNAi Screening Center, 2011)

- Test: 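dsRNAs that improve Kc cell survival under doxorubicin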 (primary screen)
- System: Drosophila Kc cells
- Reagents: long dsRNA against Drosophila genes, 0.5 µg dsRNA per well
- Timing: 96 h (48 h knock-down, then 48 h drug)
- Challenge: doxorubicin 5 µg/ml for 48 h, added 48 h after dsRNA
- Measured: 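Luminescent ATP counts per replicate, not normalised, reflecting viable cells after 48 h dsRNA knock-down followed by 48 h of 5 µg/ml doxorubicin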
- Scale: raw ATP luminescence: higher = more viable cells, protection from doxorubicin
- Rule for the call: 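z-score of 2 or more over plate mean in both duplicates, retained only when retests and separate dsRNAs confirm the protection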
The deposit covers about 19,000 reagents; below is a random part of those that have a named target and a result. Over the whole deposit, 47 (0.25%) are marked active. 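Signals are raw, not normalised; exact z-scores behind calls not deposited; actives needed confirmation, so some wells reaching 2 SD are inactive.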 Names joined by + are all predicted targets of the reagent. No sequences are given here.

gene	dsRNA	SD above plate mean	raw ATP luminescence, replicate 1	raw ATP luminescence, replicate 2	Call
AstA-R1 (Allatostatin A receptor 1)	DRSC17278		2.69e5	2.57e5	inactive
AstA-R1 (Allatostatin A receptor 1)	DRSC17727		38070	47400	inactive
CG14787	DRSC18606		55800	66630	inactive
HP4 (Heterochromatin protein 4)	DRSC10958		43057	36517	inactive
CG14177 (retired record)	DRSC10176		95193	90033	inactive
Hsp70Aa + Hsp70Bb + Hsp70Ba + 3 more	DRSC15380		54680	36117	inactive
CG17816	DRSC15277		58400	61783	inactive
RpL23A (Ribosomal protein L23A)	DRSC08694		33933	63257	inactive
CG11248	DRSC11644		29723	18457	inactive
Lip2 (Lipase 2)	DRSC02577		33697	56740	inactive
Lip2 (Lipase 2)	DRSC02578		33127	68960	inactive
CG7296	DRSC03042		2.55e5	2.39e5	inactive
Set	DRSC16861		53937	25407	inactive
Faf2 (Fas-associated factor 2)	DRSC03325		92030	64960	inactive
CG6067	DRSC18399		42080	52360	inactive
CG8160	DRSC07086		2.28e5	2.20e5	inactive
sv (shaven)	DRSC17221		68520	81770	inactive
CG30339	DRSC05168		85523	79980	inactive
Taf12L (TBP-associated factor 30kD subunit alpha-2)	DRSC00467		22063	24657	inactive
CG13786	DRSC02289		30703	27063	inactive
Rgl (Ral guanine nucleotide dissociation stimulator-like)	DRSC11267		51727	55977	inactive
CG6283	DRSC16009		66040	49480	inactive
CG13315	DRSC09986		54567	77863	inactive
RpL14 (Ribosomal protein L14)	DRSC11269		56217	66330	inactive
mrva (minerva)	DRSC11009		37577	31223	inactive
pix (pixie)	DRSC10533		54987	58067	inactive
CG11951	DRSC14442		60190	51020	inactive
stj (straightjacket)	DRSC06124		46747	44460	inactive
CG42525	DRSC08026		1.39e5	1.45e5	inactive
CG5793	DRSC15874		46240	85860	inactive
CG11560	DRSC09843		28327	37213	inactive
Mulk (Multi-substrate lipid kinase)	DRSC02658		82183	60763	inactive
par-1	DRSC05792		81603	39330	inactive
par-1	DRSC06616		67720	77640	inactive
CG1440	DRSC17915		42530	49850	inactive
CG14329	DRSC14808		1.32e5	79500	inactive
Oatp33Ea (Organic anion transporting polypeptide 33Ea)	DRSC02859		89040	64480	inactive
Ate1 (Arginyltransferase 1)	DRSC05925		86437	81783	inactive
CG9784	DRSC20210		3.37e5	3.17e5	inactive
Atac2 (Ada2a-containing complex component 2)	DRSC02053		83523	54907	inactive
CG6790	DRSC16117		46780	36133	inactive
CheA86a (Chemosensory protein A 86a)	DRSC12839		2.31e5	2.10e5	inactive
Myd88	DRSC06815		62507	71000	inactive
didum (dilute class unconventional myosin)	DRSC07603		29080	66440	inactive
His4r (Histone H4 replacement)	DRSC16703		36230	40580	inactive
Rac2	DRSC11262	at least 2 SD above plate mean	1.04e5	1.07e5	inactive
CG11131	DRSC11636		71133	75143	inactive
Ssdp (Sequence-specific single-stranded DNA-binding protein)	DRSC16211		63660	68760	inactive
l(3)S110416 (retired record)	DRSC17094		37747	40693	inactive
shg (shotgun)	DRSC04714		69843	51163	inactive
CG14153	DRSC10155		63380	62540	inactive
l(3)07882 (lethal (3) 07882)	DRSC15882		51547	58457	inactive
Serinc (Serine incorporator)	DRSC11296		23400	19273	inactive
mRpS18B (mitochondrial ribosomal protein S18B)	DRSC02107		68020	78197	inactive
E(spl)mgamma-HLH (Enhancer of split mgamma, helix-loop-helix)	DRSC16699		1.05e5	87820	inactive
Xxylt (Xyloside xylosyltransferase)	DRSC04107		61627	70583	inactive
BigH1 (Histone H1 variant BigH1)	DRSC15491		71960	33823	inactive
CG13131	DRSC02227		31457	53343	inactive
SmydA-7 (SET and MYND domain containing, arthropod-specific, member 7)	DRSC07340		53290	62253	inactive
CG14257	DRSC14752		69820	42550	inactive
CG4278	DRSC02741		76540	55343	inactive
CG11857	DRSC14411		54550	61020	inactive
lds (lodestar)	DRSC16988		68330	81130	inactive
Acsf3 (Acyl-CoA synthetase family member 3)	DRSC18146		70470	61380	inactive
CG32280	DRSC08024		1.25e5	1.51e5	inactive
crc (cryptocephal)	DRSC03513		56653	52870	inactive
Hesr (HES-related)	DRSC19965		3.50e5	3.22e5	inactive
CG32036	DRSC10362		44677	51527	inactive
bc10	DRSC11326		71153	80683	inactive
wal (walrus)	DRSC07717		71563	65160	inactive
Sgp (Sgroppino)	DRSC02195		83060	90687	inactive
ppan (peter pan)	DRSC17030		43810	44340	inactive
CG8916	DRSC20120		2.99e5	3.15e5	inactive
CG33136	DRSC05744		1.80e5	1.62e5	inactive
CG7714	DRSC16300		64640	75180	inactive
Spc105R (Spc105-related)	DRSC11663		66417	61847	inactive
Eaat1 (Excitatory amino acid transporter 1)	DRSC03321		47660	65953	inactive
Hel89B (Helicase 89B)	DRSC16700		56037	47767	inactive
CG5376	DRSC15782		46250	56060	inactive
GckIII (Germinal centre kinase III)	DRSC15729		46500	57550	inactive
Tsp42En (Tetraspanin 42En)	DRSC06185		47993	61697	inactive
Non1 (Novel nucleolar protein 1)	DRSC05954		58010	50950	inactive
CG6749	DRSC10704		1.05e5	95580	inactive
CG10384	DRSC03933		79073	79913	inactive
CG10384	DRSC04067		28900	36310	inactive

Reprinted from above, 4 entries:
gene	dsRNA	SD above plate mean	raw ATP luminescence, replicate 1	raw ATP luminescence, replicate 2	Call
CG14329	DRSC14808		1.32e5	79500	inactive
Oatp33Ea (Organic anion transporting polypeptide 33Ea)	DRSC02859		89040	64480	inactive
Ate1 (Arginyltransferase 1)	DRSC05925		86437	81783	inactive
CG9784	DRSC20210		3.37e5	3.17e5	inactive
